The source gives many values for each of these; only a part stands here.
Legend:
Format in all cases: cell-based
Settings in all cases: U-87MG ATCC
[1] = Inhibition of RTK/PI3K/AKT/mTOR signaling in human U87 cells assessed as down regulation of UBLCP1 gene expression at cytotoxic IC50 measured after 48 hrs relative to control
[2] = Inhibition of RTK/PI3K/AKT/mTOR signaling in human U87 cells assessed as down regulation of MAPKAPK2 gene expression at cytotoxic IC50 measured after 48 hrs relative to control
[3] = Inhibition of RTK/PI3K/AKT/mTOR signaling in human U87 cells assessed as up regulation of SIN3A gene expression at cytotoxic IC50 measured after 48 hrs relative to control
[4] = Inhibition of RTK/PI3K/AKT/mTOR signaling in human U87 cells assessed as up regulation of CLDN3 gene expression at cytotoxic IC50 measured after 48 hrs relative to control
[5] = Inhibition of RTK/PI3K/AKT/mTOR signaling in human U87 cells assessed as down regulation of SP6 gene expression at cytotoxic IC50 measured after 48 hrs relative to control
[6] = Inhibition of RTK/PI3K/AKT/mTOR signaling in human U87 cells assessed as up regulation of A-kinase anchoring protein 8 gene expression at cytotoxic IC50 measured after 48 hrs relative to control
[7] = Inhibition of RTK/PI3K/AKT/mTOR signaling in human U87 cells assessed as up regulation of RPL23 gene expression at cytotoxic IC50 measured after 48 hrs relative to control
[8] = Inhibition of RTK/PI3K/AKT/mTOR signaling in human U87 cells assessed as down regulation of HSP90AB1 gene expression at cytotoxic IC50 measured after 48 hrs relative to control
[9] = Inhibition of RTK/PI3K/AKT/mTOR signaling in human U87 cells assessed as down regulation of C11orf24 gene expression at cytotoxic IC50 measured after 48 hrs relative to control
[10] = Inhibition of RTK/PI3K/AKT/mTOR signaling in human U87 cells assessed as up regulation of nucleobindin 2 gene expression at cytotoxic IC50 measured after 48 hrs relative to control
[11] = Inhibition of RTK/PI3K/AKT/mTOR signaling in human U87 cells assessed as up regulation of retrotransposon Gag like 8A gene expression at cytotoxic IC50 measured after 48 hrs relative to control
[12] = Inhibition of RTK/PI3K/AKT/mTOR signaling in human U87 cells assessed as up regulation of ATP synthase F0 subunit 8 gene expression at cytotoxic IC50 measured after 48 hrs relative to control
[13] = Inhibition of RTK/PI3K/AKT/mTOR signaling in human U87 cells assessed as down regulation of STX16 gene expression at cytotoxic IC50 measured after 48 hrs relative to control
[14] = Inhibition of RTK/PI3K/AKT/mTOR signaling in human U87 cells assessed as up regulation of allograft inflammatory factor 1 like gene expression at cytotoxic IC50 measured after 48 hrs relative to control
[15] = Inhibition of RTK/PI3K/AKT/mTOR signaling in human U87 cells assessed as down regulation of SETX gene expression at cytotoxic IC50 measured after 48 hrs relative to control
[16] = Inhibition of RTK/PI3K/AKT/mTOR signaling in human U87 cells assessed as up regulation of small ubiquitin-like modifier 3 gene expression at cytotoxic IC50 measured after 48 hrs relative to control
[17] = Inhibition of RTK/PI3K/AKT/mTOR signaling in human U87 cells assessed as up regulation of McKusick-Kaufman syndrome gene expression at cytotoxic IC50 measured after 48 hrs relative to control
[18] = Inhibition of RTK/PI3K/AKT/mTOR signaling in human U87 cells assessed as down regulation of AHSA1 gene expression at cytotoxic IC50 measured after 48 hrs relative to control
[19] = Inhibition of RTK/PI3K/AKT/mTOR signaling in human U87 cells assessed as down regulation of ATP13A2 gene expression at cytotoxic IC50 measured after 48 hrs relative to control
[20] = Inhibition of RTK/PI3K/AKT/mTOR signaling in human U87 cells assessed as up regulation of dimethylarginine dimethylaminohydrolase 2 gene expression at cytotoxic IC50 measured after 48 hrs relative to control
[21] = Inhibition of RTK/PI3K/AKT/mTOR signaling in human U87 cells assessed as up regulation of HIST3H2A gene expression at cytotoxic IC50 measured after 48 hrs relative to control
[22] = Inhibition of RTK/PI3K/AKT/mTOR signaling in human U87 cells assessed as up regulation of androgen induced 1 gene expression at cytotoxic IC50 measured after 48 hrs relative to control
[23] = Inhibition of RTK/PI3K/AKT/mTOR signaling in human U87 cells assessed as up regulation of nuclear receptor subfamily 2 group F member 6 gene expression at cytotoxic IC50 measured after 48 hrs relative to control
[24] = Inhibition of RTK/PI3K/AKT/mTOR signaling in human U87 cells assessed as down regulation of GOT1 gene expression at cytotoxic IC50 measured after 48 hrs relative to control
[25] = Inhibition of RTK/PI3K/AKT/mTOR signaling in human U87 cells assessed as down regulation of QDPR gene expression at cytotoxic IC50 measured after 48 hrs relative to control
[26] = Inhibition of RTK/PI3K/AKT/mTOR signaling in human U87 cells assessed as up regulation of keratin 8 gene expression at cytotoxic IC50 measured after 48 hrs relative to control
[27] = Inhibition of RTK/PI3K/AKT/mTOR signaling in human U87 cells assessed as up regulation of pleckstrin homology like domain family B member 2 gene expression at cytotoxic IC50 measured after 48 hrs relative to control
[28] = Inhibition of RTK/PI3K/AKT/mTOR signaling in human U87 cells assessed as down regulation of RNF125 gene expression at cytotoxic IC50 measured after 48 hrs relative to control
[29] = Inhibition of RTK/PI3K/AKT/mTOR signaling in human U87 cells assessed as down regulation of EXOC6B gene expression at cytotoxic IC50 measured after 48 hrs relative to control
[30] = Inhibition of RTK/PI3K/AKT/mTOR signaling in human U87 cells assessed as up regulation of zinc finger and BTB domain containing 7B gene expression at cytotoxic IC50 measured after 48 hrs relative to control
[31] = Inhibition of RTK/PI3K/AKT/mTOR signaling in human U87 cells assessed as up regulation of GNAS gene expression at cytotoxic IC50 measured after 48 hrs relative to control
[32] = Inhibition of RTK/PI3K/AKT/mTOR signaling in human U87 cells assessed as up regulation of RPL4 gene expression at cytotoxic IC50 measured after 48 hrs relative to control

## CC(=O)C(=NNc1ccccc1C#N)C(C)=O
[1]
  log2FC: -0.796
[2]
  log2FC: -0.635
[3]
  log2FC: 0.484
[4]
  log2FC: 1.71
[5]
  log2FC: -0.731
[6]
  log2FC: 1.32
[7]
  log2FC: 0.473
[8]
  log2FC: -0.925
[9]
  log2FC: -0.756
[10]
  log2FC: 1.12
[11]
  log2FC: 0.718
[12]
  log2FC: 0.977
[13]
  log2FC: -0.898
[14]
  log2FC: 1.18
[15]
  log2FC: -0.455
[16]
  log2FC: 1.12
[17]
  log2FC: 1.07
[18]
  log2FC: -0.989
[19]
  log2FC: -0.602
[20]
  log2FC: 0.912
[21]
  log2FC: 2.02
[22]
  log2FC: 0.974
[23]
  log2FC: 0.764
[24]
  log2FC: -0.997
[25]
  log2FC: -0.846
[26]
  log2FC: 0.958
[27]
  log2FC: 1.37
[28]
  log2FC: -0.989
[29]
  log2FC: -0.692
[30]
  log2FC: 0.92
[31]
  log2FC: 0.356
[32]
  log2FC: 0.322

— ChEMBL document CHEMBL4316593 (Eur J Med Chem, 2019)
